Results as given in the supplement of paper PMC10849652.
The list shows a part of the results.

By UniProt entry, the sequences of proteins in these tests, tags left out. Where a name states a change or a piece, a line headed by the entry shows the natural chain unless it says otherwise.
UniProt O75832: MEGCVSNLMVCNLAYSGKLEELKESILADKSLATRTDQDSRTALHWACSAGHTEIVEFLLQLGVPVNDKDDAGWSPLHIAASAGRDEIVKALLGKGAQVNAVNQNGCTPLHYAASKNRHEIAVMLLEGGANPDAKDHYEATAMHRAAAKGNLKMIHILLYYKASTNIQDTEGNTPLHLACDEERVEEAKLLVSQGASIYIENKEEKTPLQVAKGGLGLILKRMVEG
UniProt Q9P2W1: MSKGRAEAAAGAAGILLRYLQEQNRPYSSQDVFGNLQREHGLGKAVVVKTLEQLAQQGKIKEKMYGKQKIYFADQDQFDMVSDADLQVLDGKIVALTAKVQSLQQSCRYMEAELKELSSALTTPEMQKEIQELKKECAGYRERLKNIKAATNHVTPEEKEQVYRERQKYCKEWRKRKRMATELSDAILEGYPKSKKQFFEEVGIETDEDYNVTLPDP
UniProt Q8WXF1: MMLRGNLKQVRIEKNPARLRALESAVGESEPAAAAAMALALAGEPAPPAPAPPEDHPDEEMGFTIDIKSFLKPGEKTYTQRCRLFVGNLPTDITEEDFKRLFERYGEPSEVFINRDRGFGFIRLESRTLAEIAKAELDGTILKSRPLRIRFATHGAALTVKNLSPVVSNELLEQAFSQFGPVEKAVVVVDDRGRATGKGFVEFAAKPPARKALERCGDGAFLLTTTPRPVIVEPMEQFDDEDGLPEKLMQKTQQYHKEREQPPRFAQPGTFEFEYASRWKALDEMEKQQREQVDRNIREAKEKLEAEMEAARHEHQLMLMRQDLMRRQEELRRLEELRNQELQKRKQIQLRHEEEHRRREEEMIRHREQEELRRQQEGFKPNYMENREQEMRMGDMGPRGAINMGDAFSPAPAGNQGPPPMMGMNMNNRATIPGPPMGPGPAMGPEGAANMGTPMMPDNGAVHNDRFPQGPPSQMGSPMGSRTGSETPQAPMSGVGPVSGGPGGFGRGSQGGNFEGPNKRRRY
UniProt Q9P2B2: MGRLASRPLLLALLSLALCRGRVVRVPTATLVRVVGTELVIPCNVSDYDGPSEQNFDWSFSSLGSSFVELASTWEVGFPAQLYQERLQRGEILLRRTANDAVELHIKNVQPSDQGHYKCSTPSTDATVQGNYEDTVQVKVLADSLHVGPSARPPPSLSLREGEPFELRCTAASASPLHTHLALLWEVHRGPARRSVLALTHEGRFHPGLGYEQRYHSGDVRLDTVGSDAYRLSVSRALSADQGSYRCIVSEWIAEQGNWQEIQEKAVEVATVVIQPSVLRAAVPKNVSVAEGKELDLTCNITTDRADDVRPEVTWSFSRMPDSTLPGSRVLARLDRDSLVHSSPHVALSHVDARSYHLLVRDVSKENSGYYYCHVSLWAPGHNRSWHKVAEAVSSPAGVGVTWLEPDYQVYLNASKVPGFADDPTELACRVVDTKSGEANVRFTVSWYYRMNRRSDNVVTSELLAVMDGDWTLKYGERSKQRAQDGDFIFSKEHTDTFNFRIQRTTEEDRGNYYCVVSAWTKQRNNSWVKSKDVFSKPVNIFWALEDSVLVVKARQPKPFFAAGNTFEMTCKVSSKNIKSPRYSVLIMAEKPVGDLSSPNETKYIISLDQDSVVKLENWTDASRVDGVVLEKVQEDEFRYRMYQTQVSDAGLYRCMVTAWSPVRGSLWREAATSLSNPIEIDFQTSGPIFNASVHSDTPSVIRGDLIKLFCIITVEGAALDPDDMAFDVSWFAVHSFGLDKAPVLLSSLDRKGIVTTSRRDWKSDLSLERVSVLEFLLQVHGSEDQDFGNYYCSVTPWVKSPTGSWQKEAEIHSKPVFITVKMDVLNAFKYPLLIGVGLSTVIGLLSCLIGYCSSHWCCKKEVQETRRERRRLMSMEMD
UniProt P10586, whole entry, looked up: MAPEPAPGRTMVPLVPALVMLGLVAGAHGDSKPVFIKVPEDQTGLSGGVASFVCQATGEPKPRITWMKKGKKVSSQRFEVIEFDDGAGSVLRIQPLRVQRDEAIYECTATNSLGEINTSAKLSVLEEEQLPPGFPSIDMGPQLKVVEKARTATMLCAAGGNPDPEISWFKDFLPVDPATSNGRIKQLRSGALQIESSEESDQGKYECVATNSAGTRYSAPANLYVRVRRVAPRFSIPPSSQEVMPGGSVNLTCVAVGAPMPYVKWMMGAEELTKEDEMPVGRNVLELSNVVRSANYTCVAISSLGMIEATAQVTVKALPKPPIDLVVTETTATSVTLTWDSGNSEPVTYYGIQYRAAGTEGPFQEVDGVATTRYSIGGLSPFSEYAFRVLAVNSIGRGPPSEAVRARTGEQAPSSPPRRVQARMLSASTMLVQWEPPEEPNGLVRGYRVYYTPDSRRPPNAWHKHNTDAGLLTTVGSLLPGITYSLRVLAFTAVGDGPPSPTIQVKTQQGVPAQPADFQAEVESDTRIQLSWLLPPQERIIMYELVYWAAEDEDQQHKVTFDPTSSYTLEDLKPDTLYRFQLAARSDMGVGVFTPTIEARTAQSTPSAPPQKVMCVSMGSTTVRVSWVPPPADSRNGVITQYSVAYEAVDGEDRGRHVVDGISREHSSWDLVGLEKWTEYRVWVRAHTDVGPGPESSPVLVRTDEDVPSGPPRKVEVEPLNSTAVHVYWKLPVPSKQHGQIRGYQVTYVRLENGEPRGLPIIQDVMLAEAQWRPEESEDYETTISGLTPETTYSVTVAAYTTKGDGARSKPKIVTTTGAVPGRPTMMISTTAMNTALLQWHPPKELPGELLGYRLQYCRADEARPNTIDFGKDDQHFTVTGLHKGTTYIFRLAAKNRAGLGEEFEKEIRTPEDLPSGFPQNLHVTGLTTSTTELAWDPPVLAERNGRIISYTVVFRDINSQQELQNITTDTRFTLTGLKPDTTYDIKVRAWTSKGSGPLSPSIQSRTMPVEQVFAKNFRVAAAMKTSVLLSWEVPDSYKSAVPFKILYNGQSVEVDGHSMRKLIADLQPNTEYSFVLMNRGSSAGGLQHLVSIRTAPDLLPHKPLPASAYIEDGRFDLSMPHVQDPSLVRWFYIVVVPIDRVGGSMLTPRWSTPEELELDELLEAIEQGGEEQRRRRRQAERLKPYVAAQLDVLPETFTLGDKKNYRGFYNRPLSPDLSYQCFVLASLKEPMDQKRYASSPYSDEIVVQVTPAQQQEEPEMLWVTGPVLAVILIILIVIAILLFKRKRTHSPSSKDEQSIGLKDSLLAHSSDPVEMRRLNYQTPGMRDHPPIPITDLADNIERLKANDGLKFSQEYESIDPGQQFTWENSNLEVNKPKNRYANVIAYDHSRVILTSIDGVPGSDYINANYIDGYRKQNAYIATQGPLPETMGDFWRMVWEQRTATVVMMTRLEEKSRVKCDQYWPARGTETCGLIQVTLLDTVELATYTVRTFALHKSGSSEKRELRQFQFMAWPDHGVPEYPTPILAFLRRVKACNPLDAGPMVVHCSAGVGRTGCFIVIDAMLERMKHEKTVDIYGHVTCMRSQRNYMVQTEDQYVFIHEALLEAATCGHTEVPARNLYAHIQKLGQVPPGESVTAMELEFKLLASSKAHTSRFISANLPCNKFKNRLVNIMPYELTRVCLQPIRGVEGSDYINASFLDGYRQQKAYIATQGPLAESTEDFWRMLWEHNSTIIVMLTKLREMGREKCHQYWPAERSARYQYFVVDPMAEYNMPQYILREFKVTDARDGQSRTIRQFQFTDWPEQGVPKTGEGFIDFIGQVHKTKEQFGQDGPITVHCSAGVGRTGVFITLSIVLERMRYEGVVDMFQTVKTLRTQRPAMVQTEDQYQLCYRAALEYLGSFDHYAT
UniProt Q9UHX1: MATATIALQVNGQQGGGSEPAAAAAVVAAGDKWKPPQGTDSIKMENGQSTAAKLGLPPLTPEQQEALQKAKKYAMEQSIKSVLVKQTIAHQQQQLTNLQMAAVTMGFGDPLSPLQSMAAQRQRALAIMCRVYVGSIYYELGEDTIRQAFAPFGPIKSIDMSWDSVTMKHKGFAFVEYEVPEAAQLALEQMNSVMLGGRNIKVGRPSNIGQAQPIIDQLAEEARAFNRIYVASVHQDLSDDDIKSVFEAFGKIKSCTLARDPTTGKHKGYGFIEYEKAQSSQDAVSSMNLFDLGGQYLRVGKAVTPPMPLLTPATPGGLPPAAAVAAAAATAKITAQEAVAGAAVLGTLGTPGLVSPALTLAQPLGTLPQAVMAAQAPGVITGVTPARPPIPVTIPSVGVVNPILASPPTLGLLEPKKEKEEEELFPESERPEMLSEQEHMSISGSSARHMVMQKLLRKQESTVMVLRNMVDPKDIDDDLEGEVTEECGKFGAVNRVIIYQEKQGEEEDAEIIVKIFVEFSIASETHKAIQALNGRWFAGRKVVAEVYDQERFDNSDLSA
UniProt Q00577: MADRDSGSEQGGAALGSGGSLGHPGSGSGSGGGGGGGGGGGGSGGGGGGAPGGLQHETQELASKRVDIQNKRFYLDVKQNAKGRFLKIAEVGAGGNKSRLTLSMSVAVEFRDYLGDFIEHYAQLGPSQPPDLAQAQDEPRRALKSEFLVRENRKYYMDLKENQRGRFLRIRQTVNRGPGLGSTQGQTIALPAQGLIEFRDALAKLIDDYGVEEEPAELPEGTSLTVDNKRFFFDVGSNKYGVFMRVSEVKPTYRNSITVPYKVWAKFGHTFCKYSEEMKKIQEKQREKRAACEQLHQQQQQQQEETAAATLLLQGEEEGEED

Assays:
Assay in all cases: log2 fold change, soluble protein after heating vs DMSO (PISA); higher = thermal stabilisation; K562 lysate, 10 uM; active = over 0.2 and 3.5 SD of the protein, either way, in both replicates (recomputed)
alvocidib = compound: CN1CC[C@H](c2c(O)cc(O)c3c(=O)cc(-c4ccccc4Cl)oc23)[C@H](O)C1 [alvocidib]
Method in brief: (§1)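 The values are log-two fold changes in thermal stability compared with solvent controls and come from duplicates. They were obtained by TMTpro 16plex LC-MS/MS, with channel sums equalised, on the supernatant after 21,000xg for 90 min. That supernatant came from crude K562 extract at 1 mg/mL protein treated with 10 μM compound for 30 min, heated for 3 min across 48°C-58°C, pooled and brought to 0.5% NP-40 at 4°C.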

[1] = compound: CNC(=O)C1=CC=CC=C1NC2=NC(=NC=C2Cl)NC3=C(C=C(C=C3)N4CCOCC4)OC
Method in brief: as §1

defactinib = compound: CNC(=O)c1ccc(Nc2ncc(C(F)(F)F)c(NCc3nccnc3N(C)S(C)(=O)=O)n2)cc1 [defactinib]
Method in brief: as §1

encorafenib = compound: COC(=O)N[C@@H](C)CNc1nccc(-c2cn(C(C)C)nc2-c2cc(Cl)cc(NS(C)(=O)=O)c2F)n1 [encorafenib]
Method in brief: as §1

[2] = compound: COC(=O)[C@H](CCSC)NC(=O)C1=C(C=C(C=C1)NC[C@H](CS)N)C2=CC=CC=C2
Method in brief: as §1

pictilisib = compound: CS(=O)(=O)N1CCN(Cc2cc3nc(-c4cccc5[nH]ncc45)nc(N4CCOCC4)c3s2)CC1 [pictilisib]
Method in brief: as §1

crizotinib = compound: C[C@@H](Oc1cc(-c2cnn(C3CCNCC3)c2)cnc1N)c1c(Cl)ccc(F)c1Cl [crizotinib]
Method in brief: as §1

[3] = compound: C[C@H](C1=CC=C(C=C1)C(=O)NC2=C3C=CNC3=NC=C2)N
Method in brief: as §1

gandotinib = compound: Cc1cc(Nc2cc(CN3CCOCC3)c3nc(C)c(Cc4ccc(Cl)cc4F)n3n2)n[nH]1 [gandotinib]
Method in brief: as §1

tozasertib = compound: Cc1cc(Nc2cc(N3CCN(C)CC3)nc(Sc3ccc(NC(=O)C4CC4)cc3)n2)n[nH]1 [tozasertib]
Method in brief: as §1

doramapimod = compound: Cc1ccc(-n2nc(C(C)(C)C)cc2NC(=O)Nc2ccc(OCCN3CCOCC3)c3ccccc23)cc1 [doramapimod]
Method in brief: as §1

bafetinib = compound: Cc1ccc(NC(=O)c2ccc(CN3CC[C@H](N(C)C)C3)c(C(F)(F)F)c2)cc1Nc1nccc(-c2cncnc2)n1 [bafetinib]
Method in brief: as §1

[4] = compound: Cc1cccc(CC(=O)N2CCc3c2ccc(-c2cn(C)c4ncnc(N)c24)c3F)n1
Method in brief: as §1

Tubastatin A = compound: CN1CCc2c(c3ccccc3n2Cc2ccc(C(=O)NO)cc2)C1 [Tubastatin A]
Method in brief: as §1

[5] = compound: CNc1nc(-c2ccc3c(N)n[nH]c3c2)cc(N2C[C@@H](C(=O)NC3CCCCC3)CC[C@H]2C)n1
Method in brief: as §1

alisertib = compound: COc1cc(Nc2ncc3c(n2)-c2ccc(Cl)cc2C(c2c(F)cccc2OC)=NC3)ccc1C(=O)O [alisertib]
Method in brief: as §1

[6] = compound: COc1cc2nc(-c3cc(F)ccc3O)nc(N[C@@H]3CNC[C@H]3C(C)(C)O)c2cc1OC
Method in brief: as §1

gefitinib = compound: COc1cc2ncnc(Nc3ccc(F)c(Cl)c3)c2cc1OCCCN1CCOCC1 [gefitinib]
Method in brief: as §1

lapatinib = compound: CS(=O)(=O)CCNCc1ccc(-c2ccc3ncnc(Nc4ccc(OCc5cccc(F)c5)c(Cl)c4)c3c2)o1 [lapatinib]
Method in brief: as §1

duvelisib = compound: C[C@H](Nc1ncnc2nc[nH]c12)c1cc2cccc(Cl)c2c(=O)n1-c1ccccc1 [duvelisib]
Method in brief: as §1

Measured: log2 fold change

PSMB2, A0A087WVV1
inactive: alvocidib -0.302 | [1] -0.024 | defactinib -0.176 | encorafenib -0.033 | [2] -0.043 | pictilisib 0.032 | crizotinib -0.154 | [3] -0.508 | gandotinib 0.137 | tozasertib 0.086 | doramapimod 0.225 | bafetinib -0.304 | [4] 0.239

PSMD10 (UniProt O75832)
inactive: alvocidib 0 | Tubastatin A 0.002 | [1] -0.006 | defactinib -0.018 | [5] 0.028 | encorafenib -0.016 | [2] -0.008 | alisertib 0.018 | [6] 0.009 | gefitinib -0.045 | lapatinib -0.027 | pictilisib -0.011 | crizotinib -0.02 | [3] -0.044 | duvelisib 0.018 | gandotinib 0.011 | tozasertib -0.008 | doramapimod -0.037 | bafetinib 0.003 | [4] 0.047

PSMC3IP (UniProt Q9P2W1)
inactive: alvocidib -0.022 | Tubastatin A -0.071 | [1] 0.036 | defactinib 0.008 | [5] 0.031 | encorafenib -0.008 | [2] -0.014 | alisertib 0.026 | [6] 0.019 | gefitinib 0.039 | lapatinib -0.025 | pictilisib -0.045 | crizotinib 0.032 | [3] -0.038 | duvelisib 0.009 | gandotinib 0.007 | tozasertib -0.007 | doramapimod -0.008 | bafetinib 0.022 | [4] -0.027

PSPC1 (UniProt Q8WXF1)
inactive: alvocidib 0.034 | Tubastatin A -0.032 | [1] 0.009 | defactinib 0.032 | [5] 0.055 | encorafenib 0.011 | [2] -0.001 | alisertib -0.004 | [6] -0.007 | gefitinib 0.001 | lapatinib 0.02 | pictilisib -0.019 | crizotinib 0.035 | [3] 0.089 | duvelisib -0.032 | gandotinib -0.02 | tozasertib -0.006 | doramapimod -0.006 | bafetinib 0.067 | [4] -0.021

PTGFRN (UniProt Q9P2B2)
inactive: alvocidib 0.021 | Tubastatin A 0.021 | [1] -0.017 | defactinib 0.035 | [5] -0.029 | encorafenib 0.02 | [2] -0.041 | alisertib -0.022 | [6] 0.004 | gefitinib 0.018 | lapatinib -0.011 | pictilisib -0.046 | crizotinib 0.013 | [3] 0.008 | duvelisib 0.045 | gandotinib 0.008 | tozasertib -0.013 | doramapimod -0.021 | bafetinib -0.004 | [4] -0.001

PTPRF (UniProt P10586)
inactive: alvocidib -0.024 | defactinib 0.154 | crizotinib -0.193 | [3] 0.004 | gandotinib -0.093 | doramapimod 0.066 | [4] 0.081

PSMA7 (UniProt H0Y586)
inactive: alvocidib 0.142 | [1] 0.164 | alisertib 0.134 | [6] -0.051 | gefitinib 0.058 | lapatinib -0.036 | pictilisib -0.007 | crizotinib -0.003 | [3] 0.052 | gandotinib 0.17 | doramapimod 0.089 | bafetinib -0.141 | [4] -0.141

PSEN2 (UniProt P49810)
inactive: alvocidib -0.014 | Tubastatin A -0.092 | [5] -0.002 | encorafenib 0.121 | [2] -0.158 | alisertib 0.178 | gefitinib 0.096 | pictilisib -0.009 | crizotinib -0.127 | [3] -0.248 | duvelisib 0.084 | gandotinib 0.189 | tozasertib 0 | doramapimod -0.083 | bafetinib -0.171 | [4] 0.18

PUF60 isoform 2 (UniProt Q9UHX1)
active: [3] 1.05
inactive: alvocidib 0.223 | Tubastatin A 0.003 | [1] 0.264 | defactinib 0.108 | encorafenib 0.039 | [2] -0.12 | alisertib -0.076 | [6] 0.038 | gefitinib 0.044 | lapatinib -0.038 | pictilisib -0.003 | crizotinib 0.005 | gandotinib -0.09 | tozasertib -0.161 | doramapimod -0.058 | bafetinib -0.006 | [4] -0.09

PURA (UniProt Q00577)
inactive: alvocidib 0.045 | Tubastatin A 0.091 | [1] -0.001 | defactinib 0.026 | [5] -0.015 | encorafenib 0.024 | [2] -0.014 | alisertib 0.007 | [6] -0.005 | gefitinib -0.012 | lapatinib -0.007 | pictilisib -0.002 | crizotinib 0.009 | [3] 0.206 | duvelisib 0.026 | gandotinib -0.157 | tozasertib 0.015 | doramapimod -0.019 | bafetinib -0.001 | [4] -0.074
